Reference: PMC4457880
These are yes or no findings as the source states them, for the method shown. Binding seen in cells or lysates may run through a third protein. Some entries that bind do so weakly or less than the wild type.

Chains of the proteins cited; added tags and fusions are not shown.
UniProt Q15025: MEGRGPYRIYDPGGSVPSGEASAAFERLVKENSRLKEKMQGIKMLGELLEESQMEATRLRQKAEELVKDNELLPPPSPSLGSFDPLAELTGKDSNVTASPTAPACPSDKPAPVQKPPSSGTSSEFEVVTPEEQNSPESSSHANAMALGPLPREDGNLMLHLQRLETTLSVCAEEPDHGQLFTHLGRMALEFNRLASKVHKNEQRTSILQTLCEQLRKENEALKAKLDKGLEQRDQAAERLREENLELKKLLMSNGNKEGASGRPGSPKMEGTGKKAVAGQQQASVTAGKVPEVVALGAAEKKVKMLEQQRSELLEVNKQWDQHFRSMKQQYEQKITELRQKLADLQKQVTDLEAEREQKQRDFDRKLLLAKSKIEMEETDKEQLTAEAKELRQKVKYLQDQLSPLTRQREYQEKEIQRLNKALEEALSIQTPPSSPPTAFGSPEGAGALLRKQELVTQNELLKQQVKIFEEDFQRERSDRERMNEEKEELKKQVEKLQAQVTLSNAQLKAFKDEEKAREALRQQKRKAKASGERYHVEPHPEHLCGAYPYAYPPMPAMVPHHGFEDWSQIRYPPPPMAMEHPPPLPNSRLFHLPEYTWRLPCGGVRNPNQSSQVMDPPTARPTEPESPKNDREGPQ
UniProt P28482: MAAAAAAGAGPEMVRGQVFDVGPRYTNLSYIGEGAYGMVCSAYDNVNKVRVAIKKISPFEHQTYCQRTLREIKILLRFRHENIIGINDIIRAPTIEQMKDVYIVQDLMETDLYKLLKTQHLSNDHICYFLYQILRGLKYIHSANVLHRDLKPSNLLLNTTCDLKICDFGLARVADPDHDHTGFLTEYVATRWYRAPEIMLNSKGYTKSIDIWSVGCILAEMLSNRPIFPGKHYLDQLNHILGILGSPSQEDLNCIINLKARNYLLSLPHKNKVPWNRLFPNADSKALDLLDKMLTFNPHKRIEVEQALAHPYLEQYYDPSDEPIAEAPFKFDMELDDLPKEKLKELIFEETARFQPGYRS

Target: TNF-α–induced protein 3-interacting protein 1 (TNIP1) (human (endogenous in HaCaT)) (UniProt Q15025)
Test: co-IP; HaCaT cells lysed in ice-cold Pierce IP lysis buffer; TNIP1 complex precipitated with anti-TNIP1 antibody and detected with anti-Erk2 antibody, and the reverse; Protein A-Sepharose beads; naive IgG as negative control

binding: binds
Substance: extracellular signal-regulated kinase 2 (Erk2) (from UniProt P28482 1-360)
